Test: peptide synthesis
Conditions: conjugation step

First: Fmoc-SP94-Mal-(2-(3-(2,5-dioxo-2,5-dihydro-1H-pyrrol-1-yl)propanamido)-2-amino(Fl6-G5-cis-aconityl-amino PEG-)-(polyethylene glycol)ethyl)carbamate
Second: Fmoc-SP94-Mal-tert-butyl(2-(3-(2,5-dioxo-2,5-dihydro-1H-pyrrol-1-yl)propanamido)(polyethylene glycol)ethyl)carbamate
The conjugation yield of the first is higher: 85% yield for the first, 80% yield for the second.

Same assay, conditions: late stage modification step

First: Fmoc-SP94-Mal-(2-(3-(2,5-dioxo-2,5-dihydro-1H-pyrrol-1-yl)propanamido)-2-amino(cis-aconityl-amino PEG-)-(polyethylene glycol)ethyl)carbamate
Second: Fmoc-SP94-Mal-(2-(3-(2,5-dioxo-2,5-dihydro-1H-pyrrol-1-yl)propanamido)(polyethylene glycol)ethyl)carbamate
The step yield of the first is lower: 65% yield for the first, 85% yield for the second.

“Fmoc-SP94-Mal-(2-(3-(2,5-dioxo-2,5-dihydro-1H-pyrrol-1-yl)propanamido)-2-amino(FT-G5-NHAc-cis-aconityl-amino PEG-)-(polyethylene glycol)ethyl)carbamate” and “H2N-SP94-Mal-(2-(3-(2,5-dioxo-2,5-dihydro-1H-pyrrol-1-yl)propanamido)-2-amino(FT-G5-NHAc-cis-aconityl-amino PEG-)-(polyethylene glycol)ethyl)carbamate” are the same in step yield: 80% yield for the first, 80% yield for the second.

Source: patent publication US9345781B2 (priority 2009, dated 2016)
